Experimental data published in PMC7199514 (Frontiers in Chemistry, 2020).

What was measured:
A549 cells [1] = test: Intracellular distribution by ToF-SIMS imaging; format: cell-based, human; conditions: 30 μM, 310 K
A549 cells [2] = test: Cellular uptake and distribution by ICP-MS; format: cell-based, human; conditions: 30 μM, 24 h

| Compound | distribution of Pt-containing fragment signals in the cell (A549 cells [1]; 3 h) | Pt incorporated to DNA (A549 cells [2]) | Pt incorporated to membrane protein (A549 cells [2]) | distribution of Pt-containing fragment signals in the cell (A549 cells [1]; 3–12 h) | distribution of Pt-containing fragment signals in the cell (A549 cells [1]; 24 h) |
| --- | --- | --- | --- | --- | --- |
| COc1cc2ncnc(Nc3ccc(F)c(Cl)c3)c2cc1OCCCn1cc[n+]([Pt-2]23[n+]4ccccc4-c4cc(-c5ccc(C)cc5)cc([n+]42)-c2cccc[n+]23)c1.F[P-](F)(F)(F)(F)F.F[P-](F)(F)(F)(F)F [Complex 2] | observed more in the cell membrane/cytoplasm and less in the nucleus | 0.19 ± 0.03 nmol Pt to 1 mg DNA | 0.43 ± 0.07 nmol Pt to 1 mg membrane prote | – | – |
| COc1cc2ncnc(Nc3ccc(F)c(Cl)c3)c2cc1OCCCn1cc[n+]([Pt-2]23[n+]4ccccc4-c4cc(-c5ccc(Br)cc5)cc([n+]42)-c2cccc[n+]23)c1.F[P-](F)(F)(F)(F)F.F[P-](F)(F)(F)(F)F [Complex 4] | – | – | – | very weak signal could be found in both the surface and deep inside of the cell | strong signal for Pt residues found in both the membrane/cytoplasm and nucleus of the cell |
